Results published in patent US20210071139A1.
These are yes or no findings as the source states them, for the method shown. In cells and extracts the contact can be indirect. These calls come from enrichment with a bait or labelling near it, and not all partners need be listed.

The chains behind the UniProt entries cited, without tags or fusion partners. Residues count along the entry.
UniProt Q9EQU5, residues 2-289: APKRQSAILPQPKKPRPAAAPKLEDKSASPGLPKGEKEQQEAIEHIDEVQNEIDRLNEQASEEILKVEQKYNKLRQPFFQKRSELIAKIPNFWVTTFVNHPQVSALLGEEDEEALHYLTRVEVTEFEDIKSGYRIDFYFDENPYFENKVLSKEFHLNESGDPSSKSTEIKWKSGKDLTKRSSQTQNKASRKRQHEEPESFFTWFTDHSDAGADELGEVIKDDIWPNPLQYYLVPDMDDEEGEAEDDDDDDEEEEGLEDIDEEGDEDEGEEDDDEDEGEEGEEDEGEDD
UniProt P63158: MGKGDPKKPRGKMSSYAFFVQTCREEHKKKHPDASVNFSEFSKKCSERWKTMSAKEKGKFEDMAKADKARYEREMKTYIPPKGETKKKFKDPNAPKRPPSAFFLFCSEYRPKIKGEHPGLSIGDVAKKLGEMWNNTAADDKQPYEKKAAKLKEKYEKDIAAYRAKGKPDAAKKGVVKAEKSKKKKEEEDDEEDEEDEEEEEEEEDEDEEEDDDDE
UniProt P60122: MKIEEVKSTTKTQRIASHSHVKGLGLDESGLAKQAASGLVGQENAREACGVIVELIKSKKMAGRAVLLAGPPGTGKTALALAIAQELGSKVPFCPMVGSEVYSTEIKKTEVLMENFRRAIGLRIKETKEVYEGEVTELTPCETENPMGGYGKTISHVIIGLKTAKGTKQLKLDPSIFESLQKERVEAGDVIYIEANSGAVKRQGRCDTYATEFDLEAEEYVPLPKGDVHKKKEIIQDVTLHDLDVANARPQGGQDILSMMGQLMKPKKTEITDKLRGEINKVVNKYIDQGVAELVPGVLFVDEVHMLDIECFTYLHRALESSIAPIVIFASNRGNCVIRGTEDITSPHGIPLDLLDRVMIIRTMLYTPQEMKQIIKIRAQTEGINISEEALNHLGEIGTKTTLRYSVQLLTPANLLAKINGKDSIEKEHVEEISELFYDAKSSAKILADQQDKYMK
UniProt Q99LT0: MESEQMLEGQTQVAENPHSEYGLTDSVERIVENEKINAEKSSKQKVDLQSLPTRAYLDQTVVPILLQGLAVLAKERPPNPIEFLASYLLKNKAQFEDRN
UniProt Q9WTM5, residues 2-463: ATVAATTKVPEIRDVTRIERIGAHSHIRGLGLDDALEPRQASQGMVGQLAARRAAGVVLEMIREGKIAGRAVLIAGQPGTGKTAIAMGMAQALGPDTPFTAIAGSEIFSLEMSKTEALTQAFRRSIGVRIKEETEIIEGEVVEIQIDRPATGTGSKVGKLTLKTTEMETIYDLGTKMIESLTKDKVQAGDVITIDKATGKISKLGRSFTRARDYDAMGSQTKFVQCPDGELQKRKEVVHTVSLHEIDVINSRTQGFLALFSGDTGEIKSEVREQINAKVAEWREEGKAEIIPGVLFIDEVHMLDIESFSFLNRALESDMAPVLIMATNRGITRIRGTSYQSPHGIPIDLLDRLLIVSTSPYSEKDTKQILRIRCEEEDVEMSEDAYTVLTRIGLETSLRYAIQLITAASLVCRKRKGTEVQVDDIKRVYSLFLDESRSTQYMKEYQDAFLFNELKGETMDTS
UniProt Q66JW3: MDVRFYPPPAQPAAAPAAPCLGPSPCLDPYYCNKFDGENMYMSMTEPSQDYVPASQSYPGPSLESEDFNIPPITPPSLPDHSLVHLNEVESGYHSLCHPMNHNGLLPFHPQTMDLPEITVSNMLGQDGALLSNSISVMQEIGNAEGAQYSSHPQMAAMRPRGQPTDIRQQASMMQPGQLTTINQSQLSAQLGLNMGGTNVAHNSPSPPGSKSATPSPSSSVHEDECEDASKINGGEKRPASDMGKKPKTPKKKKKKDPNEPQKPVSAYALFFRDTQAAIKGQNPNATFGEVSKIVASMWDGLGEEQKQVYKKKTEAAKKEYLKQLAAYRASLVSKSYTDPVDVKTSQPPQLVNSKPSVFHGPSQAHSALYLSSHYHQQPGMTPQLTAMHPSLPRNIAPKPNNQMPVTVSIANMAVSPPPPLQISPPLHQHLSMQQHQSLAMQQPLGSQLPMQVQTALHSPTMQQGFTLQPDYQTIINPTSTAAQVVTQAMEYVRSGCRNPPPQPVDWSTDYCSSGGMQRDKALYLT

Key:
[1] = target: T1, Hmgb2 (UniProt P30681); assay: IP of Tox from EL4 lysate, mass spectrometry
T1 sequence (looked up): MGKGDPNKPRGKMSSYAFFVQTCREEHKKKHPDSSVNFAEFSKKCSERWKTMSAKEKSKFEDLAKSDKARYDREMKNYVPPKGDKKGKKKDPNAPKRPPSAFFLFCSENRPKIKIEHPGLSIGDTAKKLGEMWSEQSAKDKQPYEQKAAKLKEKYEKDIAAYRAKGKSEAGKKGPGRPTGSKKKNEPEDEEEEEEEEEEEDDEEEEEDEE

[2] = target: Set (UniProt Q9EQU5); assay: IP of Tox from EL4 lysate, mass spectrometry
[3] = target: Hmgb1 (UniProt P63158); assay: IP of Tox from EL4 lysate, mass spectrometry
[4] = target: Ruvbl1 (UniProt P60122); assay: IP of Tox from EL4 lysate, mass spectrometry
[5] = target: Dpy30 (UniProt Q99LT0); assay: IP of Tox from EL4 lysate, mass spectrometry
[6] = target: Set (UniProt Q9EQU5); assay: summary in the description; assay not named there (IP and mass spectrometry in Example 10)
[7] = target: Ruvbl1 (UniProt P60122); assay: as above
[8] = target: Dpy30 (UniProt Q99LT0); assay: as above
[9] = target: RuvBl2 (UniProt Q9WTM5); assay: as above

Measured: binding

TOX (from UniProt Q66JW3 1-526)
binds: all assays above
